The text below walks through data of PMC3639248.

Sequences of proteins named here, by UniProt entry; tags and fusion partners are left off. Residues count along the entry.
UniProt Q91VN0, residues 31-1614: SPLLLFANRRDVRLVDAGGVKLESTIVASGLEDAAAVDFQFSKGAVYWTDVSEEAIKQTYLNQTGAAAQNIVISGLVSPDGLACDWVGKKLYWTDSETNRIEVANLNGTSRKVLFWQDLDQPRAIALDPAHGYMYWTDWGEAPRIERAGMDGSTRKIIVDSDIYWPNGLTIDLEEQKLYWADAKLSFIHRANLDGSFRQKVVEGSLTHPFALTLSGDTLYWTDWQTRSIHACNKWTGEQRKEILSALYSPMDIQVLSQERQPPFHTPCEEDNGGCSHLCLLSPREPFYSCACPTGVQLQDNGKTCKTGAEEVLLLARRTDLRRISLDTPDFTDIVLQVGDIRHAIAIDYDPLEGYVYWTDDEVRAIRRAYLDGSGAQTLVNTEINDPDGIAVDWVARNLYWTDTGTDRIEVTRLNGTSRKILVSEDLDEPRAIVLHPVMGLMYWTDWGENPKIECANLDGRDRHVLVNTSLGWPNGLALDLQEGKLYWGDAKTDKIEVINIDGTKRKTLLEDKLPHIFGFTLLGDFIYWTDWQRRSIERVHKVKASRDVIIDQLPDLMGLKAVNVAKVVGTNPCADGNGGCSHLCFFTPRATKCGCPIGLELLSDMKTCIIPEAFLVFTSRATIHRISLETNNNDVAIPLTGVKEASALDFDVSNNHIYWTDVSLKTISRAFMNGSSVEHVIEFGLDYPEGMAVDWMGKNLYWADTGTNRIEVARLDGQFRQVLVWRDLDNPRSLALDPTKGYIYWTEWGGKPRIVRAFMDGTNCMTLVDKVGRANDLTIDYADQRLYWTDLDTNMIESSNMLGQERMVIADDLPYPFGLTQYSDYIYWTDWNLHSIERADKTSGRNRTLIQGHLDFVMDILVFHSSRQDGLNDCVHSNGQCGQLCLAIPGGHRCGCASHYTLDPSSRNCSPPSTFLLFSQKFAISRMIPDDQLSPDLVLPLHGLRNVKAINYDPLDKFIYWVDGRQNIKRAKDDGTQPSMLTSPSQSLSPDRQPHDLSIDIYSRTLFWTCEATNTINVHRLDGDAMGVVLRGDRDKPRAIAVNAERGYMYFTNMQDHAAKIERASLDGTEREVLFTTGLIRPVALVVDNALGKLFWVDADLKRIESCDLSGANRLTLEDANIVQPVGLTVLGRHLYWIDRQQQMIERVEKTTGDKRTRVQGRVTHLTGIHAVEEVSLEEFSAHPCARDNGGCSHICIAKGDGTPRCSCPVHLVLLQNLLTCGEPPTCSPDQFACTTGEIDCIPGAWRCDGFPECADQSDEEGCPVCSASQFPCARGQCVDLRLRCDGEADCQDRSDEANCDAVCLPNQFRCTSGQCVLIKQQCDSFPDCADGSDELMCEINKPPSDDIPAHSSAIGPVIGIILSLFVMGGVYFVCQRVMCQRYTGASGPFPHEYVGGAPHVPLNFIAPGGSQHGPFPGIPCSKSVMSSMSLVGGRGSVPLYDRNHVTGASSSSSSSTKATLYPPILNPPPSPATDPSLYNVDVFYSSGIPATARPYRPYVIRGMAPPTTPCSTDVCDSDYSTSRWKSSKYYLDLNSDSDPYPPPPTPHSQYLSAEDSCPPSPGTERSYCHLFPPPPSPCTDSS
UniProt O75581, residues 20-1613: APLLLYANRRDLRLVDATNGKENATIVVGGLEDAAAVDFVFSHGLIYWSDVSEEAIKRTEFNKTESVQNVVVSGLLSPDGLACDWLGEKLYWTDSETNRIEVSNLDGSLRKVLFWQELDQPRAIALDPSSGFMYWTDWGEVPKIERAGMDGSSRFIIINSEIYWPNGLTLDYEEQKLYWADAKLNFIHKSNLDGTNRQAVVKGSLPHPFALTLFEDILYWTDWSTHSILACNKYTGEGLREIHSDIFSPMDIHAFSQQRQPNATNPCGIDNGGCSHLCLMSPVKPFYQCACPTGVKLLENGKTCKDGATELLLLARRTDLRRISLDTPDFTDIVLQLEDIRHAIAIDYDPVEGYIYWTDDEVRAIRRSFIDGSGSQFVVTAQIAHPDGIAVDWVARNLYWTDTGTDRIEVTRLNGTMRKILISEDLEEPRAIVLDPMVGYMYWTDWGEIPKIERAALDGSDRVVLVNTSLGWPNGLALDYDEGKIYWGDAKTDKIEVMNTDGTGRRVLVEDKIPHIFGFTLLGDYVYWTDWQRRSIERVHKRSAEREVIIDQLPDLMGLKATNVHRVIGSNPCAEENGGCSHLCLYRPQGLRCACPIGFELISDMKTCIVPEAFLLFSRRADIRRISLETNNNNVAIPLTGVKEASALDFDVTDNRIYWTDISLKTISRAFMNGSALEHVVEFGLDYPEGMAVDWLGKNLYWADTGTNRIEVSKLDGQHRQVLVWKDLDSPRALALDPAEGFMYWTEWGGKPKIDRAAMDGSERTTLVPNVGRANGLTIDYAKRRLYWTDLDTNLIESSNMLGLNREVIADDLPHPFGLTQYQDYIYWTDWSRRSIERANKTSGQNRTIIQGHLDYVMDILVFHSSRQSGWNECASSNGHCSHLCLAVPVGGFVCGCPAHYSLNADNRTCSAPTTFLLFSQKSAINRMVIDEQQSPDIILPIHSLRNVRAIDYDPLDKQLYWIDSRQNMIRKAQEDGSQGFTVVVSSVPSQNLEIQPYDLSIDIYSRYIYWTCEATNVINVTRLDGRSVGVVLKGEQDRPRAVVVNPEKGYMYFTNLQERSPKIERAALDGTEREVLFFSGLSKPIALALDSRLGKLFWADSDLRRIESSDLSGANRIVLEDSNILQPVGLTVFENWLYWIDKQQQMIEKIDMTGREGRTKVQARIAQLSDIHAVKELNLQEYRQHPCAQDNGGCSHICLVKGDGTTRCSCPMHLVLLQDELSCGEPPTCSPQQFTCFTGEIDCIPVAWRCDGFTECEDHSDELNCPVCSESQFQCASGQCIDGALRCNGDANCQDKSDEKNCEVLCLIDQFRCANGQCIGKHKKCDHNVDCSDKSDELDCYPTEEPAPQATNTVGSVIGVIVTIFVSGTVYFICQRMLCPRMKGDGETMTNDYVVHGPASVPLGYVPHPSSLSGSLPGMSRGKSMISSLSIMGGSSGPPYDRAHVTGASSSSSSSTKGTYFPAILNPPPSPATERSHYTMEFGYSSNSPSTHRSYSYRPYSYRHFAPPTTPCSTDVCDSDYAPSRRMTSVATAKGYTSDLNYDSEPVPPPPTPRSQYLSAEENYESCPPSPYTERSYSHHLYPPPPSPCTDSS
UniProt Q99P68, residues 24-211: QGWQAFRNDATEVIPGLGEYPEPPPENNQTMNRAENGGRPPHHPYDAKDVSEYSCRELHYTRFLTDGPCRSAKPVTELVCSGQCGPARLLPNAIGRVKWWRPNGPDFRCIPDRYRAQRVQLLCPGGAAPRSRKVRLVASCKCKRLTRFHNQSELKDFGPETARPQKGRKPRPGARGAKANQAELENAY

In assay [1] the target is low density lipoprotein receptor-related protein 5 (LRP5), endogenous on mouse mesenchymal cell lines (mouse (endogenous in C2C12, C3H10T1/2, ATDC5, KS483)) (UniProt Q91VN0). Put plainly: cross-linking; cells affinity-labelled on ice for 3 h with [125I]Sclerostin, cross-linked with 0.27 mM DSS and 0.09 mM BS3 for 15 min, lysed, immunoprecipitated with anti-LRP5 or anti-LRP6, SDS-PAGE, phosphorimager; C2C12, C3H10T1/2, ATDC5 and KS483 cells; also KS483 cells with shRNA knock-down of LRP5 or LRP6; only the binder purified.

Assay [2] has the same target. The assay is described as follows: cross-linking; KS483 cells affinity-labelled with [125I]Sclerostin pre-incubated for 30 min at room temperature with Fc, aGFP-IgG, AbD09097 or aSCL-IgG; chemical cross-linking, lysate on SDS-PAGE, phosphorimager; only the binder purified.
Assay [3] has as its target LRP6-V5 stably over-expressed on 293 cells (UniProt O75581). Put plainly: confocal microscopy of GFP-fused ligand on cells; competition: 293-LRP6 cells incubated with Sclerostin-GFP and different amounts of non-tagged Sclerostin for 1.5 h at 4°C, then 30 min at 37°C, fixed; only the binder purified.
Assay [4] shares this target. The assay is described as follows: confocal microscopy of GFP-fused ligand on cells; 293 cells stably over-expressing LRP6 or with empty pcDNA3 vector, 500 ng/ml Sclerostin-GFP, 1.5 h at 4°C (methods: 2.5 h on ice), then 30 min at 37°C, fixed; also after Monodansylcadaverine (200 µM) or Nystatin (25 µg/ml); only the binder purified.
Assay [5] shares this target. Put plainly: confocal microscopy of GFP-fused ligand on cells; Sclerostin-GFP pre-incubated with Fc or Fabs raised against Sclerostin for 30 min at room temperature, added to 293-LRP6 cells for 1.5 h at 4°C, then 30 min at 37°C, fixed; only the binder purified.

Results are given in words; binding and its absence hold for the method and conditions named. For part of these data: In cells and extracts the contact can be indirect. Some entries that bind do so weakly or less than the wild type.

“[125I]Sclerostin (recombinant murine full-length Sclerostin, iodinated) (from UniProt Q99P68 24-211)”: the binding entry is listed as “binds weakly” in assay [1] and “binds” in assay [2].
Consider “Sclerostin-GFP fusion protein (recombinant murine Sclerostin with C-terminal eGFP) (from UniProt Q99P68 24-211)”, for which the binding entry in assay [3], in assay [4] and in assay [5] was “binds” in each case.
With “non-tagged recombinant murine Sclerostin (from UniProt Q99P68 24-211)”, in assay [3], the binding result was “binds”.
